Measurements taken from the supplement of paper PMC4604168 (melanoma cell lines).
Some of the results follow. Repeats are few or missing, and single values can be far off.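 Cells were imaged in 1,536-well plates, and nuclei stained with an antibody against cleaved PARP were counted against all DNA-stained nuclei to give the apoptosis fraction. Screening doses were chosen to leave most cells alive, and resting and induced cleaved-PARP levels differ strongly between cell lines.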

test system: RPMI7951; experiment: cleaved PARP positive nuclei fraction relative to DMSO control; melanoma cells; higher = more apoptosis; conditions: library dose: low library concentration; 72 h

| SMILES | cleaved PARP positive nuclei fraction [%] |
| --- | --- |
| O=c1[nH]nc(Sc2ncc([N+](=O)[O-])s2)n1-c1ccc2c(c1)OCCO2 + Cn1cnc2c(F)c(Nc3ccc(Br)cc3Cl)c(C(=O)NOCCO)cc21 [selumetinib] (first compound 0.2 µM, partner dose 0.015 µM) | 114 |
| CC[C@]1(O)C[C@H]2CN(CCc3c([nH]c4ccccc34)[C@@](C(=O)OC)(c3cc4c(cc3OC)N(C=O)[C@H]3[C@@](O)(C(=O)OC)[C@H](OC(C)=O)[C@]5(CC)C=CCN6CC[C@]43[C@@H]65)C2)C1 [vincristine] + CS(=O)(=O)c1ccc(C(=O)Nc2ccc(Cl)c(-c3ccccn3)c2)c(Cl)c1 [vismodegib] (first compound 0.0001 µM, partner dose 1 µM) | 134 |
| O=c1[nH]nc(Sc2ncc([N+](=O)[O-])s2)n1-c1ccc2c(c1)OCCO2 + Nc1ccn([C@@H]2O[C@H](CO)[C@@H](O)C2(F)F)c(=O)n1 [gemcitabine] (first compound 0.2 µM, partner dose 0.0004 µM) | 46.7 |
| CCCCCCCCCCCCCCCCCCOP(=O)([O-])OC1CC[N+](C)(C)CC1 [Perifosine] + Cc1cc(Nc2cc(N3CCN(C)CC3)nc(/C=C/c3ccccc3)n2)n[nH]1 [ENMD2076] (first compound 0.4 µM, partner dose 0.04 µM) | 63.6 |
| O=C(Nc1cc(C(F)(F)F)cc(C(F)(F)F)c1)c1cc(Cl)ccc1O + Cn1cnc2c(F)c(Nc3ccc(Br)cc3Cl)c(C(=O)NOCCO)cc21 [selumetinib] (first compound 0.016 µM, partner dose 0.015 µM) | 96.3 |
| Cc1ccc(Nc2nccc(N(C)c3ccc4c(C)n(C)nc4c3)n2)cc1S(N)(=O)=O [Pazopanib] + CC(=O)c1c(C)c2cnc(Nc3ccc(N4CCNCC4)cn3)nc2n(C2CCCC2)c1=O [palbociclib] (first compound 0.4 µM, partner dose 0.04 µM) | 116 |
| CC[C@]1(O)C[C@H]2CN(CCc3c([nH]c4ccccc34)[C@@](C(=O)OC)(c3cc4c(cc3OC)N(C=O)[C@H]3[C@@](O)(C(=O)OC)[C@H](OC(C)=O)[C@]5(CC)C=CCN6CC[C@]43[C@@H]65)C2)C1 [vincristine] + C#Cc1cccc(Nc2ncnc3cc(OCCOC)c(OCCOC)cc23)c1 [erlotinib] (first compound 0.0001 µM, partner dose 0.8 µM) | 327 |
| N#CC[C@H](C1CCCC1)n1cc(-c2ncnc3[nH]ccc23)cn1 [ruxolitinib] + O=C(O)[C@@H]1[O][Sb](=[O])([O][Sb]2(=[O])[O][C@H]([C@H](O)CO)[C@H](O)[C@H](C(=O)O)[O]2)[O][C@H]([C@H](O)CO)[C@@H]1O [stibogluconate] (first compound 1 µM, partner dose 2 µM) | 145 |
| Cc1cn(-c2cc(NC(=O)c3ccc(C)c(Nc4nccc(-c5cccnc5)n4)c3)cc(C(F)(F)F)c2)cn1 [nilotinib] + CC(=O)O[C@@]12CO[C@@H]1C[C@H](O)[C@@]1(C)C(=O)[C@H](O)C3=C(C)[C@@H](OC(=O)[C@H](O)[C@@H](NC(=O)OC(C)(C)C)c4ccccc4)C[C@@](O)([C@@H](OC(=O)c4ccccc4)[C@H]21)C3(C)C [Docetaxel] (first compound 0.2 µM, partner dose 0.0001 µM) | 325 |
| COc1cc([C@@H]2c3cc4c(cc3[C@@H](O[C@@H]3O[C@@H]5CO[C@@H](C)O[C@H]5[C@H](O)[C@H]3O)[C@H]3COC(=O)[C@H]23)OCO4)cc(OC)c1O [etoposide] + Cc1nc(Nc2ncc(C(=O)Nc3c(C)cccc3Cl)s2)cc(N2CCN(CCO)CC2)n1 [dasatanib] (first compound 0.02 µM, partner dose 0.004 µM) | 116 |
| CC[C@]1(O)C[C@H]2CN(CCc3c([nH]c4ccccc34)[C@@](C(=O)OC)(c3cc4c(cc3OC)N(C=O)[C@H]3[C@@](O)(C(=O)OC)[C@H](OC(C)=O)[C@]5(CC)C=CCN6CC[C@]43[C@@H]65)C2)C1 [vincristine] + Cc1ccc(Nc2nccc(N(C)c3ccc4c(C)n(C)nc4c3)n2)cc1S(N)(=O)=O [Pazopanib] (first compound 0.0001 µM, partner dose 0.4 µM) | 155 |
| O=C(/C=C/c1cccnc1)NCCCCC1CCN(C(=O)c2ccccc2)CC1 + Cn1c(=O)n(-c2ccc(C(C)(C)C#N)cc2)c2c3cc(-c4cnc5ccccc5c4)ccc3ncc21 [NVP-BEZ235] (first compound 0.01 µM, partner dose 0.004 µM) | 62.2 |
| O=C(/C=C/c1cccnc1)NCCCCC1CCN(C(=O)c2ccccc2)CC1 + Cc1cn(-c2cc(NC(=O)c3ccc(C)c(Nc4nccc(-c5cccnc5)n4)c3)cc(C(F)(F)F)c2)cn1 [nilotinib] (first compound 0.01 µM, partner dose 0.2 µM) | 99.6 |
| O=C(/C=C/c1cccnc1)NCCCCC1CCN(C(=O)c2ccccc2)CC1 + COCC[n+]1c2c(n(Cc3cnccn3)c1C)C(=O)c1ccccc1C2=O [YM155] (first compound 0.01 µM, partner dose 0.0004 µM) | 29.6 |
| COc1cc([C@@H]2c3cc4c(cc3[C@@H](O[C@@H]3O[C@@H]5CO[C@@H](C)O[C@H]5[C@H](O)[C@H]3O)[C@H]3COC(=O)[C@H]23)OCO4)cc(OC)c1O [etoposide] + O=c1[nH]nc(Sc2ncc([N+](=O)[O-])s2)n1-c1ccc2c(c1)OCCO2 [BI78D3] (first compound 0.02 µM, partner dose 0.2 µM) | 164 |
| Cc1cc(Nc2cc(N3CCN(C)CC3)nc(Sc3ccc(NC(=O)C4CC4)cc3)n2)n[nH]1 [Tozasertib] + C[C@@H](Oc1cc(-c2cnn(C3CCNCC3)c2)cnc1N)c1c(Cl)ccc(F)c1Cl [Crizotinib] (first compound 0.006 µM, partner dose 0.2 µM) | 47.4 |
| O=C(Nc1cc(C(F)(F)F)cc(C(F)(F)F)c1)c1cc(Cl)ccc1O + COCC[n+]1c2c(n(Cc3cnccn3)c1C)C(=O)c1ccccc1C2=O [YM155] (first compound 0.016 µM, partner dose 0.0004 µM) | 156 |
| O=c1[nH]nc(Sc2ncc([N+](=O)[O-])s2)n1-c1ccc2c(c1)OCCO2 + CCCCCCCCc1ccc(CCC(N)(CO)CO)cc1 [fingolimod] (first compound 0.2 µM, partner dose 2 µM) | 85.4 |

Two records drawn at random from those above, as already listed:

| SMILES | cleaved PARP positive nuclei fraction [%] |
| --- | --- |
| O=c1[nH]nc(Sc2ncc([N+](=O)[O-])s2)n1-c1ccc2c(c1)OCCO2 + CCCCCCCCc1ccc(CCC(N)(CO)CO)cc1 [fingolimod] (first compound 0.2 µM, partner dose 2 µM) | 85.4 |
| O=c1[nH]nc(Sc2ncc([N+](=O)[O-])s2)n1-c1ccc2c(c1)OCCO2 + Nc1ccn([C@@H]2O[C@H](CO)[C@@H](O)C2(F)F)c(=O)n1 [gemcitabine] (first compound 0.2 µM, partner dose 0.0004 µM) | 46.7 |
